Data from PubChem BioAssay AID2685 (National Center for Advancing Translational Sciences (NCATS), 2010).
Some of the results follow. Further columns of the screen follow, without active or inactive calls. Compounds called inactive in the main read-out are mostly missing here. The note in brackets gives the kind of curve behind each potency; many fits are weak.

Test: qHTS Assay for Lipid Storage Modulators in Drosophila S3 Cells;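 on cell number change: cells counted by Cell Tracker Red CMTPX staining in the red channel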
Conditions: BODIPY lipid droplet fluorescence, 18-24 h; for cell number change: measured here: cell count max response, cells fed with added oleic acid
Outline: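 Drosophila S3 cells got compounds at several concentrations plus oleic acid (400 uM solution). Laser-scanning cytometry with 488 nm excitation read lipid droplets at 500-530 nm and cells at 575-640 nm. Percent activity was relative to 20 uM Triacsin C.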

[1] = measured here: lipid fluorescence (Fed channel) AC50, cells fed with added oleic acid
[2] = measured here: cell number channel AC50, cells fed with added oleic acid

| Compound | cell number change [%] | AC50 [1] | AC50 [2] |
| --- | --- | --- | --- |
| COc1ccc(OC)c(COC(=O)c2cc([N+](=O)[O-])ccc2N2CCOCC2)c1 | 19.4 | 29.1 µM [falling, single point] |  |
| O=C(Cn1cc([N+](=O)[O-])cn1)Nc1ccn(Cc2c(F)c(F)c(F)c(F)c2F)n1 | 51.6 |  | 10.3 µM [rising, partial curve, poor fit] |
| COc1ccc(C(=O)Nn2c(SCC(=O)c3ccccc3)nc3ccccc3c2=O)cc1 | 1.1 | 1.64 µM [falling, partial curve] |  |
| O=C(c1ccco1)n1nc(-c2ccccc2)nc1SCc1ccccc1 | -26.2 | 25.9 µM [falling, partial curve] | 0.058 µM [falling, full curve, poor fit] |
| Cc1nc2ncnn2c(N2CCC(C(=O)NC3CCCC3)CC2)c1Cc1ccccc1 |  |  | 0.461 µM [rising, partial curve, poor fit] |
| Cc1ccc(F)c(Oc2cc(NN3CCCCC3)c([N+](=O)[O-])cc2[N+](=O)[O-])c1 | -38.5 |  | 20.6 µM [falling, single point] |
| S=C(Cc1ccc(Cl)cc1)N1CCOCC1 | -51.5 | 20.6 µM [falling, single point] | 2.06 µM [falling, full curve] |
| Cc1ccc(NC(=O)COC(=O)CCc2ccccc2)c(Cl)c1 | 30.3 |  |  |
| COCC(CN1CCN(C2=NS(=O)(=O)c3ccccc32)CC1)OC(=O)c1ccccc1 (centres undefined) | -8.33 |  |  |
| C=CCn1c2ccccc2c2nnc(SCC(=O)NC(C(=O)OC)C(C)C)nc21 (centres undefined) |  | 0.146 µM [rising, full curve] | 0.146 µM [rising, full curve] |
| COc1ccc(-n2c(C)cc(C(=O)Cn3nc(C(=O)O)c4ccccc4c3=O)c2C)cc1 | -9.35 |  |  |
| CCOc1cc(S(=O)(=O)N2CCN(S(=O)(=O)CC)CC2)c(OCC)cc1-n1cnnn1 | 1.22 | 9.2 µM [rising, single point] |  |
| CC(NC(=O)C1CC2CCCC(C1)C2=O)c1ccccc1 (centres undefined) | -11.7 | 0.13 µM [falling, full curve, poor fit] |  |
| COc1ccc(C2=Nc3cccc4cccc(c34)N2)cc1 | 20.9 |  | 1.46 µM [rising, full curve, poor fit] |
| COc1ccc(CN2CCN(Cc3ccccc3F)CC2)cc1OC | 15.5 |  |  |
| Cc1cc(C)c2nc(-c3cccnc3)cc(C(=O)Nc3ccc(S(=O)(=O)Nc4onc(C)c4C)cc3)c2c1 | -32.5 |  |  |
| O=C(OCc1nnc(-c2ccccc2)o1)C12CC3CC(CC(Br)(C3)C1)C2 | 18.9 |  |  |
| Cc1cc(NC(=O)c2ccoc2C)ccc1Br | -66.5 |  | 14.6 µM [falling, partial curve] |
| COc1ccc(C(=O)NC2CCN(CC(=O)NC3CCCCC3)CC2)cc1 | -1.59 | 29.1 µM [rising, single point] |  |
| COc1ccc(OC)c(NC(=O)C(CC(C)C)NC(=O)C2CCCCC2)c1 (centres undefined) | -1.4 | 0.92 µM [falling, full curve] |  |

| Compound | cell number change [%] | AC50 [1] | AC50 [2] |
| --- | --- | --- | --- |
| COc1ccc(-n2nnnc2SCC(=O)c2cc3ccccc3o2)cc1 | -0.698 | 0.184 µM [rising, full curve, poor fit] |  |
| CCOC(=O)c1cnc(SC2CC(=O)N(c3ccc(C)cc3)C2=O)nc1N (centres undefined) | -47.8 |  | 25.9 µM [falling, single point] |
| COc1ccccc1NC(=O)CSc1n[nH]c(Cc2ccccc2)n1 | 29.7 | 29.1 µM [rising, single point] |  |
| Cc1cc2c(ncn2C)c(NS(=O)(=O)c2ccc(Cl)cc2)c1C |  |  | 0.731 µM [falling, partial curve] |
| CCC(=O)Nc1ccc(Cl)c(NC(=O)c2ccccc2OC)c1 | 15.8 | 4.11 µM [rising, single point] |  |
| CCC1(c2ccccc2)NC(=O)N(CC(=O)N(CC(=O)Nc2ccccc2C(F)(F)F)Cc2ccco2)C1=O (centres undefined) |  |  | 0.58 µM [falling, single point] |
| COc1ccc(C(=O)NCC(=O)OCC(=O)Nc2ccc(C)c(S(=O)(=O)N(C)C)c2)cc1OC | -5.09 | 2.59 µM [falling, single point] |  |
| Cc1cc(SCC(=O)c2ccc3c(c2)OCO3)nc2ccccc12 |  |  | 0.231 µM [rising, partial curve, poor fit] |
| C=CCNC(=O)c1n[nH]c2c1CC(C(C)(C)CC)CC2 (centres undefined) | -2.05 |  | 2.91 µM [falling, single point] |
| O=C(CCN1C(=O)/C(=C\c2ccccc2Cl)SC1=S)Nc1cccnc1 | -7.11 | 4.11 µM [falling, full curve, poor fit] |  |
| COc1cc(C(=O)Nc2ccc(C(C)=O)cc2)c(Br)c(OC)c1OC | 13.3 | 8.2 µM [rising, partial curve, poor fit] |  |
| O=C(NNC(=O)c1ccccc1O)c1cccc(Br)c1 | 24.9 | 29.1 µM [rising, single point] |  |
| Cc1ccc(S(=O)(=O)N2CCCC2CNC(=O)C(=O)NC2CCCC2)cc1 (centres undefined) | -7.41 | 16.4 µM [falling, partial curve, poor fit] |  |
| O=C(C1=NN(c2ccccc2)C(=O)CC1)N1CCc2ccccc2C1 | 21.4 | 23.1 µM [rising, single point] |  |
| COc1ccc(C(=O)NCCS(=O)(=O)NCc2ccco2)cc1 |  |  | 0.731 µM [falling, single point] |
| Cc1cc(C(=O)Nc2ccc(S(=O)(=O)Nc3nccs3)cc2)c(C)o1 | 4.8 | 20.6 µM [falling, partial curve, poor fit] |  |
| CCOc1ccc(CCNC(=O)/C=C/c2ccco2)cc1OCC | -21.2 |  | 3.66 µM [falling, full curve, poor fit] |
| Cc1cccc2sc(NC(=O)c3ccc(OCC4CCCO4)cc3)nc12 (centres undefined) | 42.6 |  | 11.6 µM [rising, partial curve, poor fit] |
| Cn1cc(CN2CCC(n3nccc3NC(=O)CCc3ccccc3)CC2)cn1 | 4.62 |  |  |
| CN=C(C)c1c(O)c2ccccc2oc1=O | 21.5 |  |  |

Three of these compounds in a different format.
Compound | cell number change [%] | AC50 [1] | AC50 [2]
O=C(Cn1cc([N+](=O)[O-])cn1)Nc1ccn(Cc2c(F)c(F)c(F)c(F)c2F)n1 | 51.6 |  | 10.3 µM [rising, partial curve, poor fit]
COc1ccc(C(=O)Nn2c(SCC(=O)c3ccccc3)nc3ccccc3c2=O)cc1 | 1.1 | 1.64 µM [falling, partial curve] | 
O=C(c1ccco1)n1nc(-c2ccccc2)nc1SCc1ccccc1 | -26.2 | 25.9 µM [falling, partial curve] | 0.058 µM [falling, full curve, poor fit]
